This note sets out measurements from patent US20070082373A1.

Protein sequences, listed by entry. Tags and fused reporters are not part of them.
UniProt Q99KQ4: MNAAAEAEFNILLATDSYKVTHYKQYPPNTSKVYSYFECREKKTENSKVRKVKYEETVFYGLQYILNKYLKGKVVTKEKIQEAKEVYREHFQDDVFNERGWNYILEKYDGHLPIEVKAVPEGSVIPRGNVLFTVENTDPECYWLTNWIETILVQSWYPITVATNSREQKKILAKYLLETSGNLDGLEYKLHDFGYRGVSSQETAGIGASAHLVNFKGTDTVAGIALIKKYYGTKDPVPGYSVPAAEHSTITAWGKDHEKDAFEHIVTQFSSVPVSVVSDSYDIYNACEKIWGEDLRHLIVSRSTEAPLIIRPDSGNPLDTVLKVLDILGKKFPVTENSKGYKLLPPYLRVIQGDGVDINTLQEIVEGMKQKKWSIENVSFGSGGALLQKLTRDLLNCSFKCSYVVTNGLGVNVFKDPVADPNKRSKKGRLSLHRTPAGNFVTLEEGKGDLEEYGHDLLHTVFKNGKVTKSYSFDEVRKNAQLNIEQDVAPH

These are yes or no findings as the source states them, for the method shown. Binding seen in cells or lysates may run through a third protein. Some results given as binding are weak or reduced against the parent protein; the word gives no strength.

The target in test [1] is untagged extracellular Nampt (mouse) (UniProt Q99KQ4). The test can be described thus: co-immunoprecipitation from culture supernatants, Western blot (FIG. 16C).
Test [2] shares this target. The test can be described thus: co-immunoprecipitation from HIB-1B culture supernatants with anti-FLAG M2 beads, Western blot.

On to “C-terminally FLAG®-tagged mouse Nampt (Nampt-FLAG®) (from UniProt Q99KQ4 1-491) (enzyme)”, for which the binding entry in test [1] and in test [2] was “binds” throughout.
